Source: patent publication US20240252596A1, “Injectable Polymeric Biopharmaceutical Formulations” (The Board of Trustees of the Leland Stanford Junior …, priority 2023, published 2024)

Legend:
[1] = Liquid carrier studies: suspension performance of BSA/MoNi (5%) microparticles at 460 mg/mL
[2] = Parameters of liquid carriers (density, viscosity, vapor pressure)

CC(=O)N(C)C [Dimethyl acetamide (DMAc), N,N-dimethylacetamide]
Suspension Performance [1]: +
Viscosity (@25 C.) [2]: 0.92
